Assay results: the supplement of paper PMC12889115
This is one part of the list. Values are raw readings; no control value is given beside them.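 In the initial screen, polymyxin B was used at a concentration that permeabilizes Salmonella's outer membrane but not its inner membrane. Maximum growth was set by DMSO wells with or without polymyxin B. Since plates varied, data were ranked per plate, and compounds giving the lowest OD600 advanced as hits.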

System: Salmonella enterica serovar Typhimurium SL1344
Test: bacterial growth OD600 after 18 h with compound and polymyxin B; higher = more bacterial growth (less inhibition)
Conditions: 50 µM, Mueller-Hinton broth

Structure (SMILES)	bacterial growth OD600 (polymyxin B 0.75 µg/mL)	bacterial growth OD600 (polymyxin B 1 µg/mL)
CCN1C(=O)CC(CC(=O)N2CCCCC2COC)(c2cccc(C(F)(F)F)c2)C1=O (configuration not stated)	0.771	
COc1cccc(CC(C2CCN(C(=O)c3ccc(C)cc3C)CC2)N(C)C(=O)CC(C)C)c1 (configuration not stated)	0.006	
COCC1CCN(C(=O)c2cc(COc3cccc(C(C)=O)c3)[nH]n2)C1 (configuration not stated)		0.954
c1cncc(COC2CCN(Cc3nc(-c4ccc5c(c4)OCO5)no3)CC2)c1		0.908
CCN1CCN(C2(C(=O)N3CC[C@H](O)C3)Cc3ccccc3C2)CC1	0.848	
COC(=O)C1CCN(C(=O)C2CCC(=O)N(CCCc3ccccc3)C2)CC1 (configuration not stated)		0.965
Cc1nc2ccccc2n1Cc1cc(C(=O)N(C)Cc2ccsc2)n[nH]1		0.927
CCOC(=O)C1(Cc2ccccc2C)CCCN(C(=O)c2sccc2C)C1 (configuration not stated)		0.009
O=C(c1ccccc1)N1CCCC(Nc2ccc(F)cc2)C1 (configuration not stated)		0.873
CN(CCc1ccccc1)C1(C(=O)NCc2ccncc2)Cc2ccccc2C1		0.737
Cc1ccc(CN2CCC(CN(C)Cc3ccc(F)cc3F)CC2)o1		0.771
CCOC(=O)C1(Cc2cccc(OC)c2)CCCN(CCCn2cccn2)C1 (configuration not stated)		0.97
O=C(Nc1cccc(-c2cccc(Cl)c2)c1)C1CCN(Cc2ccncc2)CC1		0.009
Cc1ccc(OCCN(C)C(=O)C2CC23CCN(Cc2nc4ccccc4s2)CC3)cc1 (configuration not stated)	0.014	
CCOC(=O)C1(Cc2cccc(F)c2)CCN(C(=O)C2CCC2)CC1		0.62
CCOc1ccc(CN2CCC(Oc3ccccc3C(=O)N3CCCC3)CC2)cc1		1.28

Structure (SMILES)	bacterial growth OD600 (polymyxin B 0.75 µg/mL)	bacterial growth OD600 (polymyxin B 1 µg/mL)
CC1CN(Cc2ccc(OC(F)F)cc2)Cc2ccccc2O1 (configuration not stated)	0.72	
COc1cccc(-c2ccc(NC(=O)C3CCCN(C(=O)C4CCCC4)C3)cc2)c1 (configuration not stated)		0.012
O=C(CCC(F)(F)F)NC1CC(=O)N(CCc2cccc(Cl)c2)C1 (configuration not stated)		0.976
CCOC(=O)C1(Cc2ccccc2F)CCCN(CCCC(F)(F)F)C1 (configuration not stated)	0.726	
O=C(NC1CC(=O)N(Cc2ccccc2C(F)(F)F)C1)c1cscn1 (configuration not stated)		0.953
CN(Cc1ccnc2ccccc12)C(=O)c1cn(Cc2ccccc2F)nn1		0.811
CC1CN(CCC(=O)NCC(C)(C)N2CCOCC2)Cc2cc(Cl)ccc2O1 (configuration not stated)	0.768	
O=C(NC1CCCC1)c1ccc(N2CCC(NCc3cnn(-c4cccc(F)c4)c3)CC2)cc1	0.775	
COC(=O)C1CCN(C(=O)CC2(c3ccccc3)CC(=O)N(CCCOc3cccnc3)C2=O)CC1 (configuration not stated)	0.779	
CCOc1ccc2nc(N3CCCN(Cc4ccc(Sc5nncn5C)o4)CC3)nc(C)c2c1	0.749	
CCNC(=O)CC(c1ccccc1)c1ccc(OC)cc1 (configuration not stated)		0.789
Cc1cccc(SC2CCN(Cc3nc(-c4ccc5c(c4)OCO5)no3)CC2)c1		0.879
CCOC(=O)C1(Cc2ccccc2F)CCCN(C(=O)c2nccc3ccccc23)C1 (configuration not stated)		0.014
CCOc1ccccc1CN1CCN(Cc2cnc(C)s2)CC1CCO (configuration not stated)		1.13
Cc1cnc(CNC(=O)CCN2Cc3ccccc3OC(c3ccccc3F)C2)cn1 (configuration not stated)	0.775	
CCOC(=O)C1CCCN(C2CCN(C(=O)CN3Cc4ccc(OC)cc4OC(C)C3)CC2)C1 (configuration not stated)	0.859	

Pulled by compound from above (2):
Structure (SMILES)	bacterial growth OD600 (polymyxin B 0.75 µg/mL)	bacterial growth OD600 (polymyxin B 1 µg/mL)
Cc1ccc(OCCN(C)C(=O)C2CC23CCN(Cc2nc4ccccc4s2)CC3)cc1 (configuration not stated)	0.014	
CC1CN(Cc2ccc(OC(F)F)cc2)Cc2ccccc2O1 (configuration not stated)	0.72	
